Data taken from PubChem BioAssay AID1458 (National Center for Advancing Translational Sciences (NCATS), 2008).
In all, about 210,000 compounds went through this assay and about 5,900 (2.8%) were called active. Another 5% or so got no clear call; they are omitted. Calls follow the shape of the dose curve; as a rule, active = well fitted activation curve with a large enough effect; inconclusive = small, poorly fitted or top-dose-only effect; inactive = no such curve, though single readings can be large or run the other way. This is a selection; strong and weak results do not stand in their true shares. The source gives no active or inactive call for entries shown without one.
Potency is read from the fitted curve at half-maximal effect.

Experiment: qHTS Assay for Enhancers of SMN2 Splice Variant Expression; also: nearly all actives have a fitted effect of over 55% in size; as to activity change, positive = activation: % of control where 0% means no effect
Settings: HEK293 SMN2-luciferase splicing reporter, luminescence, 30-36 h; activity change, positive = activation: at 46.1 µM (top of the series) unless noted
Method in brief: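 HEK293 cells carry an SMN2 […]–luciferase reporter in which exon 7 inclusion puts luciferase in frame. Cells were plated 10-12 h before compound addition, then incubated 30-36 h at 37C. ONE-Glo luminescence was read; sodium butyrate at 4.5 mM final served as control.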
With COc1ccc2c(Cl)c(C(=O)NCCCn3ccnc3)sc2c1Cl the “activity change, positive = activation” value was inactive: -30.8%.
Work on Clc1ccc(CN2CCN(/N=C/c3ccco3)CC2)cc1 yielded an activity change, positive = activation of -34%.
In the case of Cn1cc([N+](=O)[O-])c(C(=O)Nc2ccc3nc(-c4ccccc4)[nH]c3c2)n1, the Potency is reported as active: 15.8 µM.
With COc1ccc(Nc2nc(NCc3ccco3)nc(N/N=C/c3ccc(O)cc3)n2)cc1 the activity change, positive = activation was -93.8%.
Molecule CC(=O)NC1=NN(C(C)=O)C(C)(c2ccc3ccccc3c2)S1 (stereo not drawn) has an activity change, positive = activation of -31%.
For COc1ccccc1-c1nc(NCc2ccccc2)c2ccccc2n1, the “activity change, positive = activation” value was inactive: -106%.
O=C(NCCCn1ccnc1)C1c2ccccc2Oc2ccccc21 showed an activity change, positive = activation of 36.6%.
With COc1ccc(NS(=O)(=O)c2ccc3oc4ccccc4c3c2)cn1 the activity change, positive = activation was -38.1%.
Work on N#CCCSCc1ccc2oc(C(=O)O)cc2c1 yielded an activity change, positive = activation of 39.4%.
O=C(CSc1nc2[nH]ncc2c(=O)n1-c1ccccc1Br)NCc1ccco1 gave an activity change, positive = activation of 61.7%.
In the case of Cc1ccc(C(=O)Nc2cc(Cl)ccc2OC(=O)c2ccc(C)cc2)cc1, the Potency is reported as active: 14.1 µM.
For Cc1nn(C)cc1C(C(=O)NC1CCCCC1)N(C(=O)Cc1cccs1)c1ccc(C(C)C)cc1 (stereo not drawn), the “activity change, positive = activation” value was inactive: -37.1%.
Molecule c1ccc2c(c1)CCCN2Cc1nnnn1C1CCCC1 has an activity change, positive = activation of 49.4%.
With O=C1C2C(C(=O)N1/N=C/c1cccc([N+](=O)[O-])c1)C1C=CC2C12CC2 (stereo not drawn) the “activity change, positive = activation” value was inactive: 16.3%.
For COc1cc(C2c3cc4c(cc3C(OC3OC5COC(C)O[C@@H]5C(O)C3O)C3COC(=O)C23)OCO4)cc(OC)c1O (stereo partly drawn), the “activity change, positive = activation” value was inactive: -57.8%.
With CCN1CCN(C(c2cc3cccc(C)c3[nH]c2=O)c2nnnn2Cc2ccccc2)CC1 (stereo not drawn) the activity change, positive = activation was 35.5%.
In the case of O=C(O)c1ccc(COc2c(F)c(F)cc(F)c2F)o1, the activity change, positive = activation is reported as 31.2%.
With Cc1cccc(NC(=O)C(c2ccccc2Cl)N2CCOCC2)c1 (stereo not drawn) the activity change, positive = activation was -31.3%.
In the case of CC(C)CC(=O)Nc1ccc(-c2nc3ccccc3c(=O)[nH]2)cc1, the Potency is reported as active: 3.16 µM.
Molecule CC1(C)CC(=O)c2cnn(-c3nc4ccccc4[nH]3)c2C1 has an activity change, positive = activation of 43.2%.
In the case of CCn1c(SC(C)C)nnc1C1CCN(S(=O)(=O)c2ccc(OC)cc2)CC1, the “activity change, positive = activation” value is reported as inactive: -31.9%.
Molecule CC(Oc1ccc(Cl)cc1Cl)C(=O)Nc1ccc2oc(-c3ccncc3)nc2c1 (stereo not drawn) has an activity change, positive = activation of -73.5%.
For O=C(Cc1ccccc1)Nc1ccc2c(c1)CCC2, the activity change, positive = activation was 129%.
Molecule CCCS(=O)(=O)c1c(S(=O)(=O)CCC)c2cc(C(C)(C)C)ccn2c1C(=O)c1ccc(OC)c(OC)c1 has an activity change, positive = activation of 35.3%.
O=C(c1ccccc1[N+](=O)[O-])N1CCC(Cc2ccccc2)CC1 showed an activity change, positive = activation of -36.7%.
For CC(C)CCNC(=O)CCCOc1cc(=O)n(C)c2ccccc12, the Potency was active: 12.6 µM.
In the case of Cc1ccc(Cc2nnc3n(-c4ccccc4)nc(C(=O)c4ccccc4)n3c2=O)cc1, the activity change, positive = activation is reported as -43%.
COc1cc(-c2cc(C(=O)Nc3ccc(S(=O)(=O)NCc4ccco4)cc3)c3ccccc3n2)cc(OC)c1OC gave an activity change, positive = activation of -31.5%.
